Amino acid sequences for entries named in this document (tags omitted). Residues count along the entry.
UniProt P0ABA0: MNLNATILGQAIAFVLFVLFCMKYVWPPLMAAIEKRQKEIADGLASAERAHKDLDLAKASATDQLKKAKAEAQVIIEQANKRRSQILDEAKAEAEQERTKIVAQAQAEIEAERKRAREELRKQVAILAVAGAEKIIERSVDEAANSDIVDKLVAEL
UniProt P0A6Y1: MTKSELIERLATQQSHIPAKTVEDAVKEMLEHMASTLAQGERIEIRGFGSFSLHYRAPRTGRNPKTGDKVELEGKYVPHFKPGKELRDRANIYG
UniProt P0A9K9: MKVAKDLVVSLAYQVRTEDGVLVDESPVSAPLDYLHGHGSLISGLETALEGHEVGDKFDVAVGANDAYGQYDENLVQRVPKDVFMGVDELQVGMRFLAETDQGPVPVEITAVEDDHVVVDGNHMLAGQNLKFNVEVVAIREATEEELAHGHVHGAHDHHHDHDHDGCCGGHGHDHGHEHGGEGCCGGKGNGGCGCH
UniProt P64596, residues 19-191: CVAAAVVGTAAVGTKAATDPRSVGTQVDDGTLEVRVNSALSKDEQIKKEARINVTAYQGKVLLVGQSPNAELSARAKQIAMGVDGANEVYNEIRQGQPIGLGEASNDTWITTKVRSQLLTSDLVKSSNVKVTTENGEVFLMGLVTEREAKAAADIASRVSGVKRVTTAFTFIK
UniProt P0A7J3: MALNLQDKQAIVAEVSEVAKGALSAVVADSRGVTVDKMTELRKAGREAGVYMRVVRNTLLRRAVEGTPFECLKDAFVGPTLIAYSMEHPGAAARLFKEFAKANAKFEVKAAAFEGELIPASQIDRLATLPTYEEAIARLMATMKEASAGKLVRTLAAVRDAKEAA
UniProt P0A910, residues 22-346: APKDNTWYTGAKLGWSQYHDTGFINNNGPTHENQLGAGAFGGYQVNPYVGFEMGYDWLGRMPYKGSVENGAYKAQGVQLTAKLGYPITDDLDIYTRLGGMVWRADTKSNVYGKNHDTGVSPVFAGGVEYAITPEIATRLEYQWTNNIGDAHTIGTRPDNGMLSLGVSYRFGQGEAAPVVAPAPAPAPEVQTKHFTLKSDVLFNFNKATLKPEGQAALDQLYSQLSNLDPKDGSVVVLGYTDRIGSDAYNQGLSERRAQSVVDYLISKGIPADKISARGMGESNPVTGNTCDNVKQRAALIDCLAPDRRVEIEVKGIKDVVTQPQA
UniProt P0A6X7: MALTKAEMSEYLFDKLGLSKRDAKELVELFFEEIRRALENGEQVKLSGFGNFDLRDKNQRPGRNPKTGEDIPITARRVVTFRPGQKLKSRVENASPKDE
UniProt P02925, residues 26-296: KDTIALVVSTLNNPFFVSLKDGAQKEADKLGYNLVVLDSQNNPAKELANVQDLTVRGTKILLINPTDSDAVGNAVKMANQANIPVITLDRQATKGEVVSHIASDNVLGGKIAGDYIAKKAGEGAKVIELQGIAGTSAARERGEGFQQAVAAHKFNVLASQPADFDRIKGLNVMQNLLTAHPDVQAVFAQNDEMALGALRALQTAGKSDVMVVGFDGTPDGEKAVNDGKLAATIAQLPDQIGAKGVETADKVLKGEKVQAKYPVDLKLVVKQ
UniProt P0AG30: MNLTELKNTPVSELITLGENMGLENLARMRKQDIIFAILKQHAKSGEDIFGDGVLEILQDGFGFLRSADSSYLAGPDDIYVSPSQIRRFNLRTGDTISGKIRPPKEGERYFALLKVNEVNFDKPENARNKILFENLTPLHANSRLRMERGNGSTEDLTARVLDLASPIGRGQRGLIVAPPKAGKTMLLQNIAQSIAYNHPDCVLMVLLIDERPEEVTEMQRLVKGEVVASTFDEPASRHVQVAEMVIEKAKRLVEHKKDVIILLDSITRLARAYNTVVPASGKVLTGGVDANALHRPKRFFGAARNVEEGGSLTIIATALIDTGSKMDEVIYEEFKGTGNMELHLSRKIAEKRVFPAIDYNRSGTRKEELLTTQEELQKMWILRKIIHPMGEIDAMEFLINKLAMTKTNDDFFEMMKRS
UniProt P0AGE0: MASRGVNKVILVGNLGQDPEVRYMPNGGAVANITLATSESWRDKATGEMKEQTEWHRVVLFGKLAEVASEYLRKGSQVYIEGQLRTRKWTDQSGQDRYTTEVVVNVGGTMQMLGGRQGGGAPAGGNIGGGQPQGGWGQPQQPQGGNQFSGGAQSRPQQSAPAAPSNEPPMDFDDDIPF
UniProt P0AE06, residues 25-397: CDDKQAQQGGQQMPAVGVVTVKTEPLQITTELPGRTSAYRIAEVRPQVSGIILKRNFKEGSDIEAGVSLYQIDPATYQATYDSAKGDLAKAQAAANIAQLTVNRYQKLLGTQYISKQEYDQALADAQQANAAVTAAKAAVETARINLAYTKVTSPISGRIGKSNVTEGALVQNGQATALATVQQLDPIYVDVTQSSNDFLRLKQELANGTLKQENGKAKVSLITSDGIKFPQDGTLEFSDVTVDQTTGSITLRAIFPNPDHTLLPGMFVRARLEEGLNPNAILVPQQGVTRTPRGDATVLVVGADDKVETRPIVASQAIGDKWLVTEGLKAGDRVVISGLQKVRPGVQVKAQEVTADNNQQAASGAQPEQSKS
UniProt P0AEZ3: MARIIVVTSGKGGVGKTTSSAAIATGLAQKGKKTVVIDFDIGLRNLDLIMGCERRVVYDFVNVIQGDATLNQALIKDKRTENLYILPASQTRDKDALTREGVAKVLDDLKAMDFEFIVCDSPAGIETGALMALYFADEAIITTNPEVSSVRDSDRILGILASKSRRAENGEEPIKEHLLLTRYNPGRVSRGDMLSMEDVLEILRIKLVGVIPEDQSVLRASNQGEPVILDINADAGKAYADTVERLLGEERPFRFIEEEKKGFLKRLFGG

In article PMC7868338, “Identification of Functional Interactome of Colistin Resistance Protein MCR-1 in Escherichia coli” (Frontiers in Microbiology, 2020):

T1: MCR-1 full-length protein (E. coli (strain SHP45))
T1 sequence: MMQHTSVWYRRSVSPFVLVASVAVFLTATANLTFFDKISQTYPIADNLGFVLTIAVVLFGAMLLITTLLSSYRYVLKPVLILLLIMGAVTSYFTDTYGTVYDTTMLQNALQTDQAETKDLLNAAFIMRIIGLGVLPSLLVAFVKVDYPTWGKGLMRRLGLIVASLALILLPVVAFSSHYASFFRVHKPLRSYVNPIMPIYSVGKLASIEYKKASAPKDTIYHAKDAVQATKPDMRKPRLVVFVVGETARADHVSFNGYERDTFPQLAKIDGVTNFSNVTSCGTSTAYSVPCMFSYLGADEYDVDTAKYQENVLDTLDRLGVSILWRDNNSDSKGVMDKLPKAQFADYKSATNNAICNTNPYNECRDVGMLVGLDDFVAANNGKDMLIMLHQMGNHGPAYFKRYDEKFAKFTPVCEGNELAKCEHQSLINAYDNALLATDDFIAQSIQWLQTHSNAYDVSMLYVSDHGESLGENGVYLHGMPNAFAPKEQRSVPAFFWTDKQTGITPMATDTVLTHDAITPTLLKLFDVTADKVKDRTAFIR

B1: Outer membrane protein TolC (protein, UniProt P02930 23-493)
chain: ENLMQVYQQARLSNPELRKSAADRDAAFEKINEARSPLLPQLGLGADYTYSNGYRDANGINSNATSASLQLTQSIFDMSKWRALTLQEKAAGIQDVTYQTDQQTLILNTATAYFNVLNAIDVLSYTQAQKEAIYRQLDQTTQRFNVGLVAITDVQNARAQYDTVLANEVTARNNLDNAVEQLRQITGNYYPELAALNVENFKTDKPQPVNALLKEAEKRNLSLLQARLSQDLAREQIRQAQDGHLPTLDLTASTGISDTSYSGSKTRGAAGTQYDDSNMGQNKVGLSFSLPIYQGGMVNSQVKQAQYNFVGASEQLESAHRSVVQTVRSSFNNINASISSINAYKQAVVSAQSSLDAMEAGYSVGTRTIVDVLDATTTLYNAKQELANARYNYLINQLNIKSALGTLNEQDLLALNNALSKPVSTNPENVAPQTPEQNAIADGYAPDSPAPVVQQTSARTTTSNGHNPFRN
B2: Uncharacterized protein YgiM (protein, UniProt P0ADT8 23-206)
chain: EETRYVSDELNTWVRSGPGDHYRLVGTVNAGEEVTLLQTDANTNYAQVKDSSGRTAWIPLKQLSTEPSLRSRVPDLENQVKTLTDKLTNIDNTWNQRTAEMQQKVAQSDSVINGLKEENQKLKNELIVAQKKVDAASVQLDDKQRTIIMQWFMYGGGVLGLGLLLGLVLPHLIPSRKRKDRWMN
B3: Small heat shock protein IbpA (protein, UniProt P0C054 1-137)
chain: MRNFDLSPLYRSAIGFDRLFNHLENNQSQSNGGYPPYNVELVDENHYRIAIAVAGFAESELEITAQDNLLVVKGAHADEQKERTYLYQGIAERNFERKFQLAENIHVRGANLVNGLLYIDLERVIPEAKKPRRIEIN
B4: Protein ElaB (protein, UniProt P0AEH5 1-101)
chain: MSNQFGDTRIDDDLTLLSETLEEVLRSSGDPADQKYVELKARAEKALDDVKKRVSQASDSYYYRAKQAVYRADDYVHEKPWQGIGVGAAVGLVLGLLLARR
B5: Protein YihD (protein, UniProt P0ADP9 1-89)
chain: MKCKRLNEVIELLQPAWQKEPDLNLLQFLQKLAKESGFDGELADLTDDILIYHLKMRDSAKDAVIPGLQKDYEEDFKTALLRARGVIKE
B6: Cell division protein ZapB (protein, UniProt P0AF36 1-81)
chain: MTMSLEVFEKLEAKVQQAIDTITLLQMEIEELKEKNNSLSQEVQNAQHQREELERENNHLKEQQNGWQERLQALLGRMEEV
B7: Universal stress protein F (protein, UniProt P37903 1-144)
chain: MNRTILVPIDISDSELTQRVISHVEEEAKIDDAEVHFLTVIPSLPYYASLGLAYSAELPAMDDLKAEAKSQLEEIIKKFKLPTDRVHVHVEEGSPKDRILELAKKIPAHMIIIASHRPDITTYLLGSNAAAVVRHAECSVLVVR
B8: FKBP-type peptidyl-prolyl cis-trans isomerase FkpA (protein, UniProt P45523 26-270)
chain: AEAAKPATAADSKAAFKNDDQKSAYALGASLGRYMENSLKEQEKLGIKLDKDQLIAGVQDAFADKSKLSDQEIEQTLQAFEARVKSSAQAKMEKDAADNEAKGKEYREKFAKEKGVKTSSTGLVYQVVEAGKGEAPKDSDTVVVNYKGTLIDGKEFDNSYTRGEPLSFRLDGVIPGWTEGLKNIKKGGKIKLVIPPELAYGKAGVPGIPPNSTLVFDVELLDVKPAPKADAKPEADAKAADSAKK
B9: Cell division protein ZapA (protein, UniProt P0ADS2 1-109)
chain: MSAQPVDIQIFGRSLRVNCPPDQRDALNQAADDLNQRLQDLKERTRVTNTEQLVFIAALNISYELAQEKAKTRDYAASMEQRIRMLQQTIEQALLEQGRITEKTNQNFE
B10: UPF0325 protein YaeH (protein, UniProt Q0TLG8 1-128)
chain: MYDNLKSLGITNPEEIDRYSLRQEANNDILKIYFQKDKGEFFAKSVKFKYPRQRKTVVADGVGQGYKEVQEISPNLRYIIDELDQICQRDRSEVDLKRKILDDLRHLESVVTNKISEIEADLEKLTRK
B11: Sec-independent protein translocase protein TatA (protein, UniProt P69428 1-89)
chain: MGGISIWQLLIIAVIVVLLFGTKKLGSIGSDLGASIKGFKKAMSDDEPKQDKTSQDADFTAKTIADKQADTNQEQAKTEDAKRHDKEQV
B12: Tyrosine–tRNA ligase (enzyme, UniProt P0AGJ9 1-424)
chain: MASSNLIKQLQERGLVAQVTDEEALAERLAQGPIALYCGFDPTADSLHLGHLVPLLCLKRFQQAGHKPVALVGGATGLIGDPSFKAAERKLNTEETVQEWVDKIRKQVAPFLDFDCGENSAIAANNYDWFGNMNVLTFLRDIGKHFSVNQMINKEAVKQRLNREDQGISFTEFSYNLLQGYDFACLNKQYGVVLQIGGSDQWGNITSGIDLTRRLHQNQVFGLTVPLITKADGTKFGKTEGGAVWLDPKKTSPYKFYQFWINTADADVYRFLKFFTFMSIEEINALEEEDKNSGKAPRAQYVLAEQVTRLVHGEEGLQAAKRITECLFSGSLSALSEADFEQLAQDGVPMVEMEKGADLMQALVDSELQPSRGQARKTIASNAITINGEKQSDPEYFFKEEDRLFGRFTLLRRGKKNYCLICWK
B13: Aconitate hydratase B (enzyme, UniProt P36683 1-865)
chain: MLEEYRKHVAERAAEGIAPKPLDANQMAALVELLKNPPAGEEEFLLDLLTNRVPPGVDEAAYVKAGFLAAIAKGEAKSPLLTPEKAIELLGTMQGGYNIHPLIDALDDAKLAPIAAKALSHTLLMFDNFYDVEEKAKAGNEYAKQVMQSWADAEWFLNRPALAEKLTVTVFKVTGETNTDDLSPAPDAWSRPDIPLHALAMLKNAREGIEPDQPGVVGPIKQIEALQQKGFPLAYVGDVVGTGSSRKSATNSVLWFMGDDIPHVPNKRGGGLCLGGKIAPIFFNTMEDAGALPIEVDVSNLNMGDVIDVYPYKGEVRNHETGELLATFELKTDVLIDEVRAGGRIPLIIGRGLTTKAREALGLPHSDVFRQAKDVAESDRGFSLAQKMVGRACGVKGIRPGAYCEPKMTSVGSQDTTGPMTRDELKDLACLGFSADLVMQSFCHTAAYPKPVDVNTHHTLPDFIMNRGGVSLRPGDGVIHSWLNRMLLPDTVGTGGDSHTRFPIGISFPAGSGLVAFAAATGVMPLDMPESVLVRFKGKMQPGITLRDLVHAIPLYAIKQGLLTVEKKGKKNIFSGRILEIEGLPDLKVEQAFELTDASAERSAAGCTIKLNKEPIIEYLNSNIVLLKWMIAEGYGDRRTLERRIQGMEKWLANPELLEADADAEYAAVIDIDLADIKEPILCAPNDPDDARPLSAVQGEKIDEVFIGSCMTNIGHFRAAGKLLDAHKGQLPTRLWVAPPTRMDAAQLTEEGYYSVFGKSGARIEIPGCSLCMGNQARVADGATVVSTSTRNFPNRLGTGANVFLASAELAAVAALIGKLPTPEEYQTYVAQVDKTAVDTYRYLNFNQLSQYTEKADGVIFQTAV
B14: Chaperone protein Skp (protein, UniProt P0AEU7 21-161)
chain: ADKIAIVNMGSLFQQVAQKTGVSNTLENEFKGRASELQRMETDLQAKMKKLQSMKAGSDRTKLEKDVMAQRQTFAQKAQAFEQDRARRSNEERGKLVTRIQTAVKSVANSQDIDLVVDANAVAYNSSDVKDITADVLKQVK
B15: Membrane protein insertase YidC (protein, UniProt Q0TB02 1-548)
chain: MDSQRNLLVIALLFVSFMIWQAWEQDKNPQPQAQQTTQTTTTAAGSAADQGVPASGQGKLISVKTDVLDLTINTRGGDVEQALLPAYPKELNSTQPFQLLETSPQFIYQAQSGLTGRDGPDNPANGPRPLYNVEKDAYVLAEGQNELQVPMTYTDAAGNTFTKTFVLKRGDYAVNVNYNVQNAGEKPLEISTFGQLKQSITLPPHLDTGSSNFALHTFRGAAYSTPDEKYEKYKFDTIADNENLNISSKGGWVAMLQQYFATAWIPHNDGTNNFYTANLGNGIAAIGYKSQPVLVQPGQTGAMNSTLWVGPEIQDKMAAVAPHLDLTVDYGWLWFISQPLFKLLKWIHSFVGNWGFSIIIITFIVRGIMYPLTKAQYTSMAKMRMLQPKIQAMRERLGDDKQRISQEMMALYKAEKVNPLGGCFPLLIQMPIFLALYYMLMGSVELRQAPFALWIHDLSAQDPYYILPILMGVTMFFIQKMSPTTVTDPMQQKIMTFMPVIFTVFFLWFPSGLVLYYIVSNLVTIIQQQLIYRGLEKRGLHSREKKKS

molecular target: T1, MCR-1 full-length protein (E. coli (strain SHP45)); assay: affinity purification with mass spectrometry; Co-IP with anti-MCR-1 mAb 3G4 and G-Sepharose from E. coli lysates (50 mM Tris-HCl pH 7.5, 300 mM NaCl, 1 mM PMSF, 1% DDM), 4°C; co-precipitates eluted with 0.2 M glycine pH 2.3 and identified by nano LC-MS/MS; anti-IgG and empty vector pull-downs as negative controls

Which binding does the source give for “ATP synthase subunit b (from UniProt P0ABA0 1-156)” here?
Its binding is “binds”.

“Integration host factor subunit beta (from UniProt P0A6Y1 1-94)” was tested. Which binding did it give?
Its binding is “binds”.

How did the binding turn out when “FKBP-type peptidyl-prolyl cis-trans isomerase SlyD (from UniProt P0A9K9 1-196)” was run?
Its binding is “binds”.

With “Uncharacterized protein YraP (from UniProt P64596 19-191)” as the molecule, how does the binding read?
Its binding is “binds”.

“50S ribosomal protein L10 (from UniProt P0A7J3 1-165)” was tested. Which binding did it give?
The binding was “binds”.

How did the binding turn out when “Outer membrane protein A (from UniProt P0A910 22-346)” was run?
Its binding is “binds”.

“Integration host factor subunit alpha (from UniProt P0A6X7 1-99)” was tested. Which binding did it give?
Its binding is “binds”.

With “50S ribosomal protein L7/L12 (from UniProt P0A7K2 1-121)” as the molecule, how does the binding read?
Its binding is “binds”.

Which binding does the source give for “Ribose import binding protein RbsB (from UniProt P02925 26-296)” here?
Its binding is “binds”.

“Transcription termination factor Rho (from UniProt P0AG30 1-419)” was tested. Which binding did it give?
The binding was “binds”.

How did the binding turn out when “Single-stranded DNA-binding protein (from UniProt P0AGE0 1-178)” was run?
Its binding is “binds”.

How did the binding turn out when “Multidrug efflux pump subunit AcrA (from UniProt P0AE06 25-397)” was run?
The binding was “binds”.

Which binding does the source give for “Septum site-determining protein MinD (from UniProt P0AEZ3 1-270)” here?
Its binding is “binds”.

B1 was tested. Which binding did it give?
The binding was “binds”.

For B2, which binding is on record?
Its binding is “binds”.

How did the binding turn out when B3 was run?
Its binding is “binds”.

For B4, which binding is on record?
The binding was “binds”.

How did the binding turn out when B5 was run?
The binding was “binds”.

With B6 as the molecule, how does the binding read?
Its binding is “binds”.

With B7 as the molecule, how does the binding read?
The binding was “binds”.

How did the binding turn out when B8 was run?
The binding was “binds”.

B9 was tested. Which binding did it give?
Its binding is “binds”.

B10 was tested. Which binding did it give?
Its binding is “binds”.

For B11, which binding is on record?
The binding was “binds”.

How did the binding turn out when B12 was run?
Its binding is “binds”.

B13 was tested. Which binding did it give?
Its binding is “binds”.

How did the binding turn out when B14 was run?
The binding was “binds”.

How did the binding turn out when B15 was run?
Its binding is “binds”.

These are yes or no findings as the source states them, for the method shown. Binding seen in cells or lysates may run through a third protein. Here binding means that the protein was enriched with, or labelled near, the bait; the list need not be complete.
